In all, about 33,000 sequences were measured (“E-score (-0.5 to 0.5)”: median about -8e-05, highest 2% from about 0.23 on). Some of the results follow.

For this assay, the target named is T1, Nrg2 (UniProt P38082).
T1 sequence: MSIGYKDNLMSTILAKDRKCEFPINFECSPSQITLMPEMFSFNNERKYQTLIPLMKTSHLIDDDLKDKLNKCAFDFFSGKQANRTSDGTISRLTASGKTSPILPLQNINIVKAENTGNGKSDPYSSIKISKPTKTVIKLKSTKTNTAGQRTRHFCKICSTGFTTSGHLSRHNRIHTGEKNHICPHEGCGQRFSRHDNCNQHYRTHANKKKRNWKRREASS
As to the kind of experiment: PBM E-score (8-mer binding enrichment) (E-score (-0.5 to 0.5)); higher = stronger / more preferred TF binding. The conditions noted are these: protein concentration: 100 nM; construct: GST-full length. Summed up: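 Bound GST-tagged yeast transcription factors, applied at about 100-200 nM to double-stranded universal all-10-mer Agilent arrays, were detected with fluorescent anti-GST. Scans were normalised with masliner. A modified Wilcoxon-Mann-Whitney statistic, the E-score, was assigned to each ungapped eight-base word pooled with its reverse complement by the Universal PBM Analysis Suite.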
In the case of AATTCGTA, the “PBM E-score” value amounted to 0.0307.

Turning to GAGAGCGA, the “PBM E-score” value was -0.0278.

On to CACACATG, for which the “PBM E-score” value was -0.019.

In the case of GGTGTGAA, the “PBM E-score” value is 0.132.

Turning to CCTAATAG, the “PBM E-score” value was -0.0529.

Turning to ACATTAGA, the “PBM E-score” value was -0.0413.

On to CGTTGCAG, for which the “PBM E-score” value is -0.075.

As to GGCTTGAA, the “PBM E-score” value is -0.0173.

For CCAACCCG, the “PBM E-score” value is -0.0787.

Regarding AACATGCA, the “PBM E-score” value amounted to 0.121.

In the case of AGACCCTG, the “PBM E-score” value was 0.431.

As to GGTTTTAA, the “PBM E-score” value amounted to 0.0537.

Turning to TAATCGAA, the “PBM E-score” value came to 0.176.

For CCTAGCTC, the “PBM E-score” value is -0.0333.

CAAGATGG: the “PBM E-score” value is -0.0175.

With CCACTGCA, the “PBM E-score” value is -0.0415.

Turning to AAATGGGA, the “PBM E-score” value was -0.0677.

On to CAAATTGG, for which the “PBM E-score” value is 0.181.

Turning to AGACGGCC, the “PBM E-score” value is -0.0662.

Consider GCGAAAAA, for which the “PBM E-score” value was determined as 0.176.

For the sequence CATCTAAG, the “PBM E-score” value is 0.0254.

As to AGACCTAC, the “PBM E-score” value was -0.067.

For TCGATAAA, the “PBM E-score” value is 0.013.

Consider CACTTTGG, for which the “PBM E-score” value came to 0.0319.

Regarding GCCTTCAC, the “PBM E-score” value turned out to be 0.0605.

Take AGGGGTTA: the “PBM E-score” value turned out to be 0.0393.

In the case of GACCCGAC, the “PBM E-score” value was -0.0111.

On to TATCATGA, for which the “PBM E-score” value came to 0.093.

Take ACCTAGAA: the “PBM E-score” value was -0.0741.

With CCAAACGG, the “PBM E-score” value was -0.0561.

Turning to ACCTTATA, the “PBM E-score” value came out at 0.099.

With GCCTTCCA, the “PBM E-score” value is -0.051.

As for AATTGGCC, the “PBM E-score” value is -0.0225.

Regarding ATTTATAC, the “PBM E-score” value was 0.208.

For AGCCGGAC, the “PBM E-score” value is 0.125.

As to CGCAGGTA, the “PBM E-score” value was determined as 0.056.

For CGCCCCCC, the “PBM E-score” value is -0.457.

Regarding GGGGAGAA, the “PBM E-score” value was -0.21.

For the sequence CCGGTTAA, the “PBM E-score” value is -0.0773.

For CGTTACTC, the “PBM E-score” value was -0.132.

In the case of GTAAAGTA, the “PBM E-score” value came out at 0.0985.

Regarding GCACGACC, the “PBM E-score” value is -0.0619.

CCAATGTA: the “PBM E-score” value was -0.177.

Consider AACCAGAG, for which the “PBM E-score” value is 0.103.

In the case of CAAGTGTC, the “PBM E-score” value was 0.00801.

Regarding AAGCGGGT, the “PBM E-score” value came to 0.00955.

Turning to ATTCCCTC, the “PBM E-score” value amounted to 0.0205.

With GAACAGAA, the “PBM E-score” value came out at 0.0366.

CCTTAAGA: the “PBM E-score” value amounted to 0.0838.

Turning to ATATAGAG, the “PBM E-score” value was -0.069.

As for CAGAATCG, the “PBM E-score” value was -0.0128.

Turning to ACCTCCTA, the “PBM E-score” value is -0.264.

As for AGTTACAC, the “PBM E-score” value amounted to 0.031.

In the case of GCAGGATA, the “PBM E-score” value amounted to 0.00604.

In the case of AGTTGGAT, the “PBM E-score” value was 0.00499.

As to CGACATAC, the “PBM E-score” value was 0.0964.

Take GACGGCAC: the “PBM E-score” value was -0.243.

As for CGCAGTGC, the “PBM E-score” value is -0.121.

For TCAACAGA, the “PBM E-score” value came out at 0.0444.

In the case of ACGTATCG, the “PBM E-score” value is -0.0544.

For AGCGAGAA, the “PBM E-score” value was -0.0328.

On to ACGTGCTC, for which the “PBM E-score” value is -0.148.

For the sequence ATACTAAC, the “PBM E-score” value was determined as 0.136.

With ACGGCTCA, the “PBM E-score” value was 0.0324.

On to CAGAAGCA, for which the “PBM E-score” value came out at 0.0277.

In the case of ACGTACTG, the “PBM E-score” value was 0.0327.

Consider CCCGGGCG, for which the “PBM E-score” value is -0.142.

Regarding CACGTAGG, the “PBM E-score” value is -0.156.

Turning to CGGAATTC, the “PBM E-score” value is -0.0171.

For the sequence CTTATTAC, the “PBM E-score” value is 0.128.

As for ACCGTGCC, the “PBM E-score” value is -0.0394.

Consider ACTGCTGG, for which the “PBM E-score” value is -0.0922.

As to CGTGCACC, the “PBM E-score” value is -0.0971.

As to GATCACCC, the “PBM E-score” value is -0.0149.

In the case of CTGCGAGA, the “PBM E-score” value is -0.263.

Regarding ACCTACTG, the “PBM E-score” value was -0.126.

On to ACAATTCA, for which the “PBM E-score” value was -0.0411.

For the sequence ATGTATTC, the “PBM E-score” value was 0.16.

With ACACCTGC, the “PBM E-score” value was -0.0423.

With TCCTGTAA, the “PBM E-score” value stood at 0.0125.

On to CTCGGCCA, for which the “PBM E-score” value was determined as 0.104.

As for AAAGTTTG, the “PBM E-score” value was 0.0906.

ATACAGCG: the “PBM E-score” value was -0.0502.

Take CTTATAAC: the “PBM E-score” value came to 0.091.

Regarding GCTCAGTA, the “PBM E-score” value is -0.0523.

Turning to ACGAGTAA, the “PBM E-score” value worked out at 0.244.
